The other results are listed elsewhere or left out.

The chains behind the UniProt entries cited, without tags or fusion partners. Where a name states a change or a piece, a line headed by the entry shows the natural chain unless it says otherwise.
UniProt Q9Y3A3: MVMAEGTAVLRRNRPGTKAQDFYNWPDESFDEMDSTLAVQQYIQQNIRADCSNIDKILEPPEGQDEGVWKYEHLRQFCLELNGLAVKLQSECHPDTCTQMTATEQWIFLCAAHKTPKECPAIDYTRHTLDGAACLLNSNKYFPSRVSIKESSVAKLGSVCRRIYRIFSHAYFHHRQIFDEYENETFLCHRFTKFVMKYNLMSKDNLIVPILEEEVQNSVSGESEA
UniProt Q9UH92: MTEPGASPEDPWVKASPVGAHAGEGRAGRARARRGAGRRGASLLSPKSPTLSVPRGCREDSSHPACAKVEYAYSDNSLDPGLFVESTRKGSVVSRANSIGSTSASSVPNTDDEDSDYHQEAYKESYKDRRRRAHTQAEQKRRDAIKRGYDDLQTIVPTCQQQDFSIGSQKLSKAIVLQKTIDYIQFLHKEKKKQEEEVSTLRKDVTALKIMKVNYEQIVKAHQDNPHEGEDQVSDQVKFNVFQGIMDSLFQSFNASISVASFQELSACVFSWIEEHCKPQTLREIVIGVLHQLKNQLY
UniProt Q9BU76: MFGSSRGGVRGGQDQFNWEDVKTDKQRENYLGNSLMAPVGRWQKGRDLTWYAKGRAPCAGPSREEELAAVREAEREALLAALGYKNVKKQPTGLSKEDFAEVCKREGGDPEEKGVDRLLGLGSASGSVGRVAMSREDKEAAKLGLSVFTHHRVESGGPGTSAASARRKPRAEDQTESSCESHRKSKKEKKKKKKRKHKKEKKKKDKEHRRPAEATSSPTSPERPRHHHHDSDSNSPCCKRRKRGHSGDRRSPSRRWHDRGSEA
UniProt O95297: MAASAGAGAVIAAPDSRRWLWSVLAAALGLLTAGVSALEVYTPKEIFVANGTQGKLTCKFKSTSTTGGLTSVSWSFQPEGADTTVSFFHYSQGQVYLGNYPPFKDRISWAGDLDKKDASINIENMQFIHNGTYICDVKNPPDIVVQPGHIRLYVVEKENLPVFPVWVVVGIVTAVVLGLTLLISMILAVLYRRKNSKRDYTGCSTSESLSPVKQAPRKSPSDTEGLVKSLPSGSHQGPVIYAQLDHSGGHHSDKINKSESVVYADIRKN
UniProt P25325: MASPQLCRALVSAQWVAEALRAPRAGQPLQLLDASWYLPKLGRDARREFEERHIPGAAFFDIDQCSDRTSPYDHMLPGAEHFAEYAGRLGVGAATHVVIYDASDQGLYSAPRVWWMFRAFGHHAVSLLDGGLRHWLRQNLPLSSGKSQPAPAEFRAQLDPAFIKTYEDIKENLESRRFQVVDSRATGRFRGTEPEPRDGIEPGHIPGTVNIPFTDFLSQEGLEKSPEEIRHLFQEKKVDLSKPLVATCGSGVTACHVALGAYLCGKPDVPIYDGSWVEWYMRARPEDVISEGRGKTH
UniProt Q5TGZ0: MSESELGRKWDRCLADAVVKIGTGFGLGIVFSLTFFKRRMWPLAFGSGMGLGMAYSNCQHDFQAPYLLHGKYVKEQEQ
UniProt P46013: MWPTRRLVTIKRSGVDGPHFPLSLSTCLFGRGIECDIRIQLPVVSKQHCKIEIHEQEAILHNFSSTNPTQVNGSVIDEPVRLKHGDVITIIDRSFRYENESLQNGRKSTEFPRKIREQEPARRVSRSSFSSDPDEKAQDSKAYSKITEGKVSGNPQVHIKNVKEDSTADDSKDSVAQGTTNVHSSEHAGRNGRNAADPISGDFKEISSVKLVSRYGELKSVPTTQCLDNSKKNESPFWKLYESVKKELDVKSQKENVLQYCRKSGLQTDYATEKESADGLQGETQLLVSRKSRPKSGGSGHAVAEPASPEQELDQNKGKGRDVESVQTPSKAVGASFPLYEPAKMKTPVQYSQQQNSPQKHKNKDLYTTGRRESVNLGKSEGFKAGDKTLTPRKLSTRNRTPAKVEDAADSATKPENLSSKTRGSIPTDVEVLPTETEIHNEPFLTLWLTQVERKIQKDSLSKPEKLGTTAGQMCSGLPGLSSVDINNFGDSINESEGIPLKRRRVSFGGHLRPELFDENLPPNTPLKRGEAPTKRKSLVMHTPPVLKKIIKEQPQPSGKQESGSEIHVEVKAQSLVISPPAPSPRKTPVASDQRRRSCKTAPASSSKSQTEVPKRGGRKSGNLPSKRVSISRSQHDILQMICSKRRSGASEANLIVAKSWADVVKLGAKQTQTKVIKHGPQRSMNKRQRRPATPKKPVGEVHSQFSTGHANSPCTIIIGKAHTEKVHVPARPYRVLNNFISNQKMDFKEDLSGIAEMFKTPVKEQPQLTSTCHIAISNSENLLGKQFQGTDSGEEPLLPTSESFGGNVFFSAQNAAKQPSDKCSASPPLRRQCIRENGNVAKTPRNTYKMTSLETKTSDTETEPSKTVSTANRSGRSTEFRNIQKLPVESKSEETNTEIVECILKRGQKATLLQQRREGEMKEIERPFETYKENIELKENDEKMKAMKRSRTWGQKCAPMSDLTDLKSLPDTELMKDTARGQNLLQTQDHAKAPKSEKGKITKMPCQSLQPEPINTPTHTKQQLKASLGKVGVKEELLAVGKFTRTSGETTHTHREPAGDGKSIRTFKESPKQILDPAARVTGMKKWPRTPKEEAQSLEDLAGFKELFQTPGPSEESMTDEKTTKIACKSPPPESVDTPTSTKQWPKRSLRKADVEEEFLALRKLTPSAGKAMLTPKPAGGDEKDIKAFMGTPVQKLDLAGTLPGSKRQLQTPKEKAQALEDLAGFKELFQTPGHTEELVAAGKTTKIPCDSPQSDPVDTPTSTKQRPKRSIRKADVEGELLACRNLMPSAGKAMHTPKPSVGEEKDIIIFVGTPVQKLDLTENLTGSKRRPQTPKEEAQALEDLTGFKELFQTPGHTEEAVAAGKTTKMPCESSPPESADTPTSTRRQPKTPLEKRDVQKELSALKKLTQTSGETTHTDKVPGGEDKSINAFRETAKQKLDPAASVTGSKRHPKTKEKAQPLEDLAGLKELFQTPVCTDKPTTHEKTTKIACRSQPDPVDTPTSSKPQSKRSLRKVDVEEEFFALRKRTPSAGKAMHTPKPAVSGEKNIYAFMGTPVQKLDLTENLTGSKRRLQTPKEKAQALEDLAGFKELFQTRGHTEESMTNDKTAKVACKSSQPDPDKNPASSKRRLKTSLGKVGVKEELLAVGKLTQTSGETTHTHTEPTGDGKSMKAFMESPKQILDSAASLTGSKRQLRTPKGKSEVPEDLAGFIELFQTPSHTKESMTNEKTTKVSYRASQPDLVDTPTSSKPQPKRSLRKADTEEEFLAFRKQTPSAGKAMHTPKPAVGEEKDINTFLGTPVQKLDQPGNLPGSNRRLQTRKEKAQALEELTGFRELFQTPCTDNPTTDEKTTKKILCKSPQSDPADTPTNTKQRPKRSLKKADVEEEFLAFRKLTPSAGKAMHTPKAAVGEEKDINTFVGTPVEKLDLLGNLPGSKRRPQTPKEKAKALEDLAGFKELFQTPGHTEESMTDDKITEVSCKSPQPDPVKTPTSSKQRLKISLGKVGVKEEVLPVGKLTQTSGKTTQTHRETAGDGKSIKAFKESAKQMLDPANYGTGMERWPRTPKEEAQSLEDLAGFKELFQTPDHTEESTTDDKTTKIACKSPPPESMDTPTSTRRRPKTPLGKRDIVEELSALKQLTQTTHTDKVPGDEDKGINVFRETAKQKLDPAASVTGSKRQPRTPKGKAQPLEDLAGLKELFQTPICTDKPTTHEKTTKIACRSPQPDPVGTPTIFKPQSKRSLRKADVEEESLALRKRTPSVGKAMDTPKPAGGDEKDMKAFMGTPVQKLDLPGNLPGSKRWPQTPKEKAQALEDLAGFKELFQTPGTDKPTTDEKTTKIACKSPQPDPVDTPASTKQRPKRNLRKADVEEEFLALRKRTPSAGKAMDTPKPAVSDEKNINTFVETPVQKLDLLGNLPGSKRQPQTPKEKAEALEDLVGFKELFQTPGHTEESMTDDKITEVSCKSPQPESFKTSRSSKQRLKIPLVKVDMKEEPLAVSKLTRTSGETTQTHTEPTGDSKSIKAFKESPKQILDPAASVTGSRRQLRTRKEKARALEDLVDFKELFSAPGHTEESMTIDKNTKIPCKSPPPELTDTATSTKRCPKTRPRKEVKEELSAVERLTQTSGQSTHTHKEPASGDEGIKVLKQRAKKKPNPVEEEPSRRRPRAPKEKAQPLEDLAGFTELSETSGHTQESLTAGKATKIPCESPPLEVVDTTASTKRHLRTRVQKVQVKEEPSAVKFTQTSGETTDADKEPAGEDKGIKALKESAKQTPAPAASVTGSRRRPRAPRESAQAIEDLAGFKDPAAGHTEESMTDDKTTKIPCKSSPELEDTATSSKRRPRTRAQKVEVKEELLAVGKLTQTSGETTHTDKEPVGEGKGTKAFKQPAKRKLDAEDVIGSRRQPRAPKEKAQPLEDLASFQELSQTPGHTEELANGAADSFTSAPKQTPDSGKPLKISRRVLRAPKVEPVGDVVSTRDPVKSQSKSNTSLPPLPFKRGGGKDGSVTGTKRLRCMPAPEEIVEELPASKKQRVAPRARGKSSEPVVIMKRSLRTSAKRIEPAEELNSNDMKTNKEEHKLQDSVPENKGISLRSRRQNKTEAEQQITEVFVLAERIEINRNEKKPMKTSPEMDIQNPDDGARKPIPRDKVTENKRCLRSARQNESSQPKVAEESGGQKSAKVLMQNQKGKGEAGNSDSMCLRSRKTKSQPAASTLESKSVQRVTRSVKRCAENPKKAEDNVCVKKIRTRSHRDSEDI
UniProt Q8N3F8: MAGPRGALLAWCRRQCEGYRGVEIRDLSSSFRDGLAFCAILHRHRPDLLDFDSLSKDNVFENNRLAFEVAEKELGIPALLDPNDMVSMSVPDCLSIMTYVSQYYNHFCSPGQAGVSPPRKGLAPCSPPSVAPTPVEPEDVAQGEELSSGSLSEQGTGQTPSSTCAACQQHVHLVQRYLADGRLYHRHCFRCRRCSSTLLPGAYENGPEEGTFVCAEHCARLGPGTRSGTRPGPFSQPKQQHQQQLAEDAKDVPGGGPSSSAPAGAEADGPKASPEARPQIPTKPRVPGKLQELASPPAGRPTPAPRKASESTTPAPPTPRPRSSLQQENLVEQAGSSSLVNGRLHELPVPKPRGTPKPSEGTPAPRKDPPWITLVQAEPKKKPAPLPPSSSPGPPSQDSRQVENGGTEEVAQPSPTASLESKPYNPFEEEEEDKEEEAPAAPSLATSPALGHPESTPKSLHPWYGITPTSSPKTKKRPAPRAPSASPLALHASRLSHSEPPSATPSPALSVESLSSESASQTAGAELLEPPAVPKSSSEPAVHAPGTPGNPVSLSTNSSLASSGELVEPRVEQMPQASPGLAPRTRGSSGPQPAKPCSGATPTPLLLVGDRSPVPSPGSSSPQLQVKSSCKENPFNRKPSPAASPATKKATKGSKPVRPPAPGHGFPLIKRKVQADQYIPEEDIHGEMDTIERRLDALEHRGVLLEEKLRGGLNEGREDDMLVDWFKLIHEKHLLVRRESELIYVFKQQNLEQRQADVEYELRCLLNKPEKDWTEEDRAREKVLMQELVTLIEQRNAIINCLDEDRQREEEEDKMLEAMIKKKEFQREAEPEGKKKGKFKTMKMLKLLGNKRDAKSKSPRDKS
UniProt Q9H8M7: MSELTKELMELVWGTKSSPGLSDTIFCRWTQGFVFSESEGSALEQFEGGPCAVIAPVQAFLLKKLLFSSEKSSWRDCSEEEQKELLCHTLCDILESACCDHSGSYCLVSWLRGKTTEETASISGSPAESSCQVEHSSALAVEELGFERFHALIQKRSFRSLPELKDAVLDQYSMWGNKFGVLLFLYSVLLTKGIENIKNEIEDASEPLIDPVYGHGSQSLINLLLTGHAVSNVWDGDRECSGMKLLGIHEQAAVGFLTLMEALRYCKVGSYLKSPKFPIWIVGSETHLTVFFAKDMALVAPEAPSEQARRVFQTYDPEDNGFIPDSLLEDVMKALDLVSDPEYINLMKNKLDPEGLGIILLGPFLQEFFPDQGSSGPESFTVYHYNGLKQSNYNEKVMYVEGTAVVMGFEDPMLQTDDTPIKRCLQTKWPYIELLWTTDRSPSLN
UniProt Q00013: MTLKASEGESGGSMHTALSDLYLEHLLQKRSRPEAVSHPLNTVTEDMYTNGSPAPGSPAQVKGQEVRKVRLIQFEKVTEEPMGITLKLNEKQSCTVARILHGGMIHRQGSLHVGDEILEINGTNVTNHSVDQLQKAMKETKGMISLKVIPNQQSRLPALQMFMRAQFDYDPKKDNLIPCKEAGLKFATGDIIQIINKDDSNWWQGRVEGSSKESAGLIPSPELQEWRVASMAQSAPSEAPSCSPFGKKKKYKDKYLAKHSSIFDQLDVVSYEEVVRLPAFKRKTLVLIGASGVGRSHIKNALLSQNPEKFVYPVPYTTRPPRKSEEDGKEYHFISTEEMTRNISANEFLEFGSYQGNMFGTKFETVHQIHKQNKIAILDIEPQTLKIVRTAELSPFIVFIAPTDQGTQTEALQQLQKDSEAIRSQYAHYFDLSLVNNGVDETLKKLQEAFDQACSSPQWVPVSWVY

Compound in the test: CCCS(=O)(=O)Nc1ccc(F)c(C(=O)c2c[nH]c3ncc(-c4ccc(Cl)cc4)cc23)c1F [vemurafenib]
As to the kind of experiment: log2 fold change, soluble protein after heating vs DMSO (PISA); higher = thermal stabilisation; K562 lysate, 10 uM; active = over 0.2 and 3.5 SD of the protein, either way, in both replicates (recomputed). In outline: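 A 30 min treatment with 10 μM compound was applied to crude K562 extract at 1 mg/mL protein in PBS pH 7.4 with 1 mM MgCl2. Heating for 3 min spanned 48°C-58°C, after which aliquots were pooled, adjusted to 0.5% NP-40 at 4°C and spun at 21,000xg for 90 min. TMTpro 16plex LC-MS/MS of the supernatant, with channel sums equalised, gave values recorded as log-two fold change in thermal stability against solvent controls, from duplicates.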
Regarding MGST1 (UniProt P10620), the log2 fold change is inactive: 0.015.

Consider MRI1 (UniProt Q9BV20), for which the log2 fold change was inactive: -0.012. Then MOB4 (UniProt Q9Y3A3), with inactive: -0.032. For MKNK1 (UniProt Q9BUB5), the log2 fold change is inactive: 0.044. With MIF4GD isoform 3 (UniProt A9UHW6) the figure was inactive: 0.016; with MRPL1 (UniProt Q9BYD6), inactive: 0.008. With MLX (UniProt Q9UH92) the figure was inactive: 0.07; with MPI (UniProt P34949), inactive: 0.013.

With MRGBP (UniProt Q9NV56), the log2 fold change was inactive: -0.028.

As for MMTAG2 (UniProt Q9BU76), the log2 fold change is inactive: 0.028. Then MPZL1 (UniProt O95297), with inactive: 0.037; and MRPL23 (UniProt Q16540), with inactive: 0.014. With MPST isoform 2 (UniProt P25325) the figure was inactive: -0.027. On to MRPL15 (UniProt Q9P015), for which the log2 fold change is inactive: 0.004. On to MICOS10 (UniProt Q5TGZ0), for which the log2 fold change is inactive: -0.165. Then MIA2 (UniProt Q96PC5), with inactive: 0.029; and MKI67 (UniProt P46013), with inactive: 0.001; and MKRN1 (UniProt Q9UHC7), with inactive: -0.028. Regarding MRPL14 (UniProt Q6P1L8), the log2 fold change is inactive: 0.012. With MICALL1 (UniProt Q8N3F8) the figure was inactive: 0.003; with MICALL2 (UniProt Q8IY33), inactive: 0.007; with MINDY3 (UniProt Q9H8M7), inactive: -0.014. With MPP1 (UniProt Q00013) the figure was inactive: 0.014.
